In article PMC4483769 one finds binding data, which are given here for four substances.

Results are given in words; binding and its absence hold for the method and conditions named. In cells and extracts the contact can be indirect. Binding can be weak; no strength is given. Where a sequence is shown, tags or fusion partners need not be part of it.

For this assay, the target named is T1, 3×Flag-GPR177 (UniProt Q5T9L3).
T1 sequence: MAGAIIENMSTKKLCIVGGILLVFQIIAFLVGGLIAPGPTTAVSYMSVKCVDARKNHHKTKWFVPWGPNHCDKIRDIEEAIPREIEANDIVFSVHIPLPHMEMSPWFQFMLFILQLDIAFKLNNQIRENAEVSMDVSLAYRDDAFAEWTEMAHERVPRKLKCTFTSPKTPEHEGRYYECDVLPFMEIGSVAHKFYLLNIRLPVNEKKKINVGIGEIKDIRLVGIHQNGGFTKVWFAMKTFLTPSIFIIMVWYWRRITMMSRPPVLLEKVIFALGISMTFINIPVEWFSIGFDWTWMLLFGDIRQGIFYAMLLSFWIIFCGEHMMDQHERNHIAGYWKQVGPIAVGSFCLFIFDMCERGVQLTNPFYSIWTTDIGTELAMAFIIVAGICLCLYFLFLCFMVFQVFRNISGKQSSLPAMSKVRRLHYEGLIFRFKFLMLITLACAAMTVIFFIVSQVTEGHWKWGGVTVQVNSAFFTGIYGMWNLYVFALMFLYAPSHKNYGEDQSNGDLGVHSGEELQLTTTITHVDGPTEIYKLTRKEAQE
Nature of the assay: co-IP; anti-Flag M2 affinity gel, 2 mg total lysate of 3×Flag-GPR177 stable HeLa cells, 8 h at 4°C, washed three times with 50 mM Tris HCl pH 7.5, 150 mM NaCl, 1 mM EDTA, 1% Triton X-100, eluted with 3×Flag peptides; precipitates blotted for vesicular markers.
RAB5 (human (endogenous in HeLa)): the binding entry was “binds”.

For the substance RAB7 (human (endogenous in HeLa)), the binding result was “no binding”. The entry for RAB9 (human (endogenous in HeLa)) is “binds”. For the substance RAB11 (human (endogenous in HeLa)), the binding entry is “no binding”.
